From publication PMC12368045 come the findings set out here.

Protein sequences, listed by entry. Tags and fused reporters are not part of them.
UniProt Q8CFI0: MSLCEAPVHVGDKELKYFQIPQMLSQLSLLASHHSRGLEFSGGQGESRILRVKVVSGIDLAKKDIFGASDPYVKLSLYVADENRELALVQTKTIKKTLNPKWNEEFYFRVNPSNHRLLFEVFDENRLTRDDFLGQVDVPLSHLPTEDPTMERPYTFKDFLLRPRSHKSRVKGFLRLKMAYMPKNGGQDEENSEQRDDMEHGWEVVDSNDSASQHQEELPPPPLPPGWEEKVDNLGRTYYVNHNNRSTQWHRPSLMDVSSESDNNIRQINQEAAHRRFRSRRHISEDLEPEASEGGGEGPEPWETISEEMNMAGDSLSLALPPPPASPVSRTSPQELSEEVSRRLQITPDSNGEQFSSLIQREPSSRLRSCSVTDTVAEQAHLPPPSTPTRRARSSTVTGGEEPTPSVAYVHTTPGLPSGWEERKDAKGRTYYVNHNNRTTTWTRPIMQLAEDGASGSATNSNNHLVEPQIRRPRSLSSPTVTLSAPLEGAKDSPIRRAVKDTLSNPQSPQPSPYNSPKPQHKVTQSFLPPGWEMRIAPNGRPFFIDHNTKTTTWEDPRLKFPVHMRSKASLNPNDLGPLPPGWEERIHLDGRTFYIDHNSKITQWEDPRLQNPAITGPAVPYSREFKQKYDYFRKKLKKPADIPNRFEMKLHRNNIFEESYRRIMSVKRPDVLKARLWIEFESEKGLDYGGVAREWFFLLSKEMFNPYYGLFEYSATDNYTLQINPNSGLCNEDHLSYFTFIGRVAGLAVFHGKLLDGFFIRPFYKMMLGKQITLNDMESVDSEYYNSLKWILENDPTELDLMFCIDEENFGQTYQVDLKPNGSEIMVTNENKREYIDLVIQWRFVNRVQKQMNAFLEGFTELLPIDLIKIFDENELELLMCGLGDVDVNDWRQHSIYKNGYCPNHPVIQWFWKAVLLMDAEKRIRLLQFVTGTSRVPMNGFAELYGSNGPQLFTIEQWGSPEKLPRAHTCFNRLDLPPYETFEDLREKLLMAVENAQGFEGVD

The target in experiment [1] is T1, PLSCR1-GFP (WT, mouse PLSCR1 in pEGFP-C2) (mouse) (UniProt Q9JJ00).
T1 sequence: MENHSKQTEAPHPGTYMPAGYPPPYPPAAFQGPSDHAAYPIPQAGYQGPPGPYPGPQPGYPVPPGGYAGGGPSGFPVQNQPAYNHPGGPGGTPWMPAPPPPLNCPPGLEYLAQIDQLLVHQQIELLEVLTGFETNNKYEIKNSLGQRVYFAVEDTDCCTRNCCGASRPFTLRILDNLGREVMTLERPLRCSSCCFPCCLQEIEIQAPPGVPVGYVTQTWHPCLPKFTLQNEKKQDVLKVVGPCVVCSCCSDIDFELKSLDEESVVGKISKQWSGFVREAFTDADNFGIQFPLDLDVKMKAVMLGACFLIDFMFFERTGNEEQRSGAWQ
The experiment in a line: co-IP; HEK293T co-transfected with NEDD4-2-myc and PLSCR1-GFP (WT or PY mutant); MG132 and CQ for 4 h; immunoprecipitation with anti-GFP, anti-myc or anti-Nedd4-2 on protein G-Sepharose; immunoblot. (In western blotting, separated proteins are transferred to a membrane and probed.)

A further experiment deals with NEDD4-2-myc (WT) (UniProt Q8CFI0). The experiment is described as above.

These are yes or no findings as the source states them, for the method shown. Binding seen in cells or lysates may run through a third protein. Some binding calls cover weakened binding; strength is not graded here. Tags and fused reporters may be left off the sequences shown.

Take “NEDD4-2-myc (WT) (from UniProt Q8CFI0 1-1004) (enzyme)”: in experiment [1], the binding result is recorded as “binds”.

B1: PLSCR1-GFP (WT, mouse PLSCR1 in pEGFP-C2) (protein, UniProt Q9JJ00 1-328)
chain: MENHSKQTEAPHPGTYMPAGYPPPYPPAAFQGPSDHAAYPIPQAGYQGPPGPYPGPQPGYPVPPGGYAGGGPSGFPVQNQPAYNHPGGPGGTPWMPAPPPPLNCPPGLEYLAQIDQLLVHQQIELLEVLTGFETNNKYEIKNSLGQRVYFAVEDTDCCTRNCCGASRPFTLRILDNLGREVMTLERPLRCSSCCFPCCLQEIEIQAPPGVPVGYVTQTWHPCLPKFTLQNEKKQDVLKVVGPCVVCSCCSDIDFELKSLDEESVVGKISKQWSGFVREAFTDADNFGIQFPLDLDVKMKAVMLGACFLIDFMFFERTGNEEQRSGAWQ
For the molecule B1, the binding result with NEDD4-2-myc (WT) is “binds”.
